These are yes or no findings as the source states them, for the method shown. In cells and extracts the contact can be indirect. Some binding calls cover weakened binding; strength is not graded here.
Legend:
[1] = target: T1, forkhead box A1 (FOXA1) (human (endogenous in MFE-296 and AN3CA)) (UniProt P55317); test: co-IP; AN3CA cells treated with vehicle (no DHT); IP with anti-FOXA1 from 500 ug lysate, 4°C overnight, Protein A + G Agarose, washed with RIPA; western blot for AR and FOXA1
T1 sequence: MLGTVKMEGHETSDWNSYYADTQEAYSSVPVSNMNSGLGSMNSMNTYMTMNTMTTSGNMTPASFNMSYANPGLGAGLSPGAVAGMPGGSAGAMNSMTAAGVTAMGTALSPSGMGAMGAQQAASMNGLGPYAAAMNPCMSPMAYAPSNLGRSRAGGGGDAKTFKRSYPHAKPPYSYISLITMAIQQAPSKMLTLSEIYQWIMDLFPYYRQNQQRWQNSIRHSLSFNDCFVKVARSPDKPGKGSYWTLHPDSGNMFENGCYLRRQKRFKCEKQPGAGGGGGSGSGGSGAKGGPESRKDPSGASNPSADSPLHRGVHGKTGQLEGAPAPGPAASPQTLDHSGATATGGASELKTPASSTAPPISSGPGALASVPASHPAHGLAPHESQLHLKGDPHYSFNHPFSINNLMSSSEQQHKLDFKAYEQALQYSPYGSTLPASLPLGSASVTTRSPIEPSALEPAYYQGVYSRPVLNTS

Sequences of proteins named here, by UniProt entry; tags and fusion partners are left off.
UniProt P10275: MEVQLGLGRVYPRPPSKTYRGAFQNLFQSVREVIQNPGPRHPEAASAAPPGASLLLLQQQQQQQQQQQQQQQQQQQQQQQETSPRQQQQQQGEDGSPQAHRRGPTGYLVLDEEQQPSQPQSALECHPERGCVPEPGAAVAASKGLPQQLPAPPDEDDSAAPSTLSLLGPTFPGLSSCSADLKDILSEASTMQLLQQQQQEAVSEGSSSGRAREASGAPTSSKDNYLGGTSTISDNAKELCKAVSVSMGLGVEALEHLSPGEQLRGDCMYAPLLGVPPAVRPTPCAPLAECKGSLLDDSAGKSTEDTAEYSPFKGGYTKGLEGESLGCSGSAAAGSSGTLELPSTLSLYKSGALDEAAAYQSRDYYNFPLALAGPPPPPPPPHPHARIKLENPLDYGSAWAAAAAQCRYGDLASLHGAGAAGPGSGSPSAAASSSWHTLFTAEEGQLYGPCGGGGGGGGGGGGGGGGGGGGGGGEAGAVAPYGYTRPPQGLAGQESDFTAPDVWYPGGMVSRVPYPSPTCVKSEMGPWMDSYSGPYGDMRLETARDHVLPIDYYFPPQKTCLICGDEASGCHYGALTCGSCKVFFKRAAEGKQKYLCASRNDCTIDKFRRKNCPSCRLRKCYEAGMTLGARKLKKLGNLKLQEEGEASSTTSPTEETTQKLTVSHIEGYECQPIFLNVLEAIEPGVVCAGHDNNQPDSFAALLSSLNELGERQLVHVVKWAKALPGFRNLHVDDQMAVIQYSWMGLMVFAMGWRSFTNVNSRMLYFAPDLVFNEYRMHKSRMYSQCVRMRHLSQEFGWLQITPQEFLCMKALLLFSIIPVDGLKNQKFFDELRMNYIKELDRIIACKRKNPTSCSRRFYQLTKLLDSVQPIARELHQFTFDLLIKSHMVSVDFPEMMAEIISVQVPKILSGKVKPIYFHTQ

[2] = target: T1, forkhead box A1 (FOXA1) (human (endogenous in MFE-296 and AN3CA)); test: co-IP; AN3CA cells treated with 10^-7 M DHT for 24 h; IP with anti-FOXA1 from 500 ug lysate, 4°C overnight, Protein A + G Agarose, washed with RIPA; western blot for AR and FOXA1
[3] = target: T1, forkhead box A1 (FOXA1) (human (endogenous in MFE-296 and AN3CA)); test: co-IP; nuclear lysates from MFE-296 cells; IP with rabbit anti-FOXA1 (Epitomics), 500 ug lysate, 4°C overnight, Protein A + G Agarose, washed with RIPA; western blot for AR and FOXA1; isotype IgG as control

binding [2]: binds | binding [3]: binds
Substance: androgen receptor (AR) (from UniProt P10275 1-920)
binding [1]: no binding (condition: AN3CA cells without DHT (vehicle))

— PMC3926330
